Article PMC12047801, “Disrupting the OTUD4-USP7 deubiquitinase complex to suppress herpesvirus replication: a novel antiviral strategy” (PLOS Pathogens, 2025)
No constants are given. Whether binding was seen depends on the method and setting. For part of these data: Binding seen in cells or lysates may run through a third protein. Some binding calls cover weakened binding; strength is not graded here. For part of these data: Tags and fused reporters may be left off the sequences shown.

By UniProt entry, the sequences of proteins in these tests, tags left out. Residues count along the entry.
UniProt Q6A4J8, residues 1-208: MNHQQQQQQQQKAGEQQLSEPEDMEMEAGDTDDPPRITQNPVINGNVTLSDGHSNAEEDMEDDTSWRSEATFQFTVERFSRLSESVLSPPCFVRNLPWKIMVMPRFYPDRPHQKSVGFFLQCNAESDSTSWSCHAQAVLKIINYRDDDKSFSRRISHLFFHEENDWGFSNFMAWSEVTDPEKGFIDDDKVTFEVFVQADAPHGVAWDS

Assays:
[1] = molecular target: GST-USP7-murine TRAF WT (murine) (UniProt Q6A4J8); experiment: pull-down; only the target purified
[2] = molecular target: GST-USP7-murine TRAF WT (murine) (UniProt Q6A4J8); experiment: pull-down; competition: as the GST pull-down, with peptides (100 μM) included throughout the incubation; pair of GST-USP7-TRAF and FLAG-OTUD4; only the target purified
[3] = molecular target: GST-USP7-TRAF WT (human) (UniProt Q93009); experiment: pull-down; both purified
[4] = molecular target: GST-USP7-murine TRAF WT (murine) (UniProt Q6A4J8); experiment: pull-down; both purified
[5] = molecular target: USP7 (endogenous in SLK.iBAC-GFP cells) (human (endogenous in SLK.iBAC-GFP)) (UniProt Q93009); experiment: proximity ligation; only the binder purified
[6] = molecular target: Recombinant USP7-TRAF protein (human) (UniProt Q93009); experiment: SPR; both purified

B1: FLAG-mOTUD4 (protein, UniProt B2RRE7 1-1107)
chain: MEAAVGAPDGVDQGGVGPLEDETPMDAYLRKLGLYRKLVAKDGSCLFRAVAEQVLHSQSRHVEVRMACIRYLRENREKFEAFIEGSFEEYLKRLENPQEWVGQVEISALSLMYRKDFVIYQEPNVSPSHVTENNFPEKVLLCFSNGNHYDIVYPITYKDSSAMCQSLLYELLYEKVFKTDVSKIMMGLEASEVAEESNSEISDSEDDSCKSKSTAATDVNGFKPSGSENPKNNGNSADLPLSRKVLKSLNPAVYRNVEYEIWLKSKQAQQKRDYSIAAGLQYEVGDKCHQVRLDHNGKLSNADIHGVHSENGLVLSEELGKKHTPKNLKPPPPESWNTVSGKKMKKPNSGQNFHSDTDYRGPKNLNKPIKAPSALPPRLQHPSSGVRQHAFSSHSTGSQSQKSSSEHKNLSRMPSQITRKPDRERAEDFDHVSRESYYFGLSPEERREKQAIEESRLLYEIQNRDEQAFPALSSSSVSQSPSQNSNACVPRKSSHARDRKGSMRRADAEERKDKDSLRGHTHVDKKPEPSTLEISDDKCTRVSSPSKSKKECPSPVEQKPAEHIPLSNPAPLLVSPEVHLTPAVPSLPATVPAWPSEPTTFGPTGVPAQIPILSVTQTTGPDAAVSQAHLTPSPVPVSIQAVNQPLMPLPQTMSLYQDPLYPGFPCSEKGDRAIAPPYSLCQTGEDLPKDKNILRFFFNLGVKAYSCPMWAPHSYLYPLHQAYMAACRMYPKVPVPVYPQNTWFQEAPPAQSESDCPCTDAHYSLHPEASVNGQMPQAEMGPPAFASPLVIPPSQVSEGHGQLSYQPELESENPGQLLHAEYEESLSGKNMYPQQSFGPNPFLGPVPIAPPFFPHVWYGYPFQGFVENPVMRQNIVLPPDDKGELDLPLENLDLSKECDSVSAVDEFPDARVEGAHSLSAASVSSKHEGRVEQSSQTRKADIDLASGSSAVEGKGHPPTQILNREREPGSAEPEPKRTIQSLKEKPEKVKDPKTAADVVSPGANSVDRLQRPKEESSEDENEVSNILRSGRSKQFYNQTYGSRKYKSDWGSSGRGGYQHVRGEESWKGQPNRSRDEGYQYHRHVRGRPYRGDRRRSGMGDGHRGQHT
- binding [1]: binds
- binding [2]: binds

Binder: YGRKKRRQRRRGGVNQSASQSSN (acetylated at the N-terminus; amidated at the C-terminus) [p8 fused to an N-terminal Tat(47-57) peptide via a GG linker]
- binding [3]: binds
- binding [4]: binds
- binding [5]: binds

Binder: NSSQSASQNVPPRRRQRRKKRGY [p8-DRI (D-retro-inverso p8)]
- binding [6]: binds
